Paper PMC10819208
Results are given in words; binding and its absence hold for the method and conditions named. Binding seen in cells or lysates may run through a third protein. Some entries that bind do so weakly or less than the wild type.

Protein sequences, listed by entry. Tags and fused reporters are not part of them.
UniProt P04608: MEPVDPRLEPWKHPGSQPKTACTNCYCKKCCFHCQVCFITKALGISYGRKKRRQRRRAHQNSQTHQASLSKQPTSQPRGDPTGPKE
UniProt P50750: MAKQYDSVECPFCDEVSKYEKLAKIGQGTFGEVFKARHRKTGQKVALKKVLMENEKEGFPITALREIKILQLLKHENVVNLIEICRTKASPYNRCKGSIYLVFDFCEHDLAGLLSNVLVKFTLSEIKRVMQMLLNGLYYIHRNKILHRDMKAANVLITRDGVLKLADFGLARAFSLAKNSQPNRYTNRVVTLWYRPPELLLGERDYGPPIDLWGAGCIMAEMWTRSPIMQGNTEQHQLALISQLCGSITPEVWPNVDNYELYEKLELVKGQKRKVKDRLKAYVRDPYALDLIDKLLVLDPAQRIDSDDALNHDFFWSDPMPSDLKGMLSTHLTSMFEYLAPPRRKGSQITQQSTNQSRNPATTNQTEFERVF

Molecular target: Flag-Tat (HIV-1 transactivator protein Tat) (HIV-1) (UniProt P04608)
Assay: co-IP; anti-Flag M2 antibody on BSA-blocked protein A/G agarose beads, lysate of HEK293T cells transfected with Flag-Tat, overnight at 4 °C, IgG as control; cells treated beforehand with DMSO (0.1%), 110FA or 102FA (1 µM); eluate blotted for Cyclin T1 and Cdk9

Cdk9 (from UniProt P50750 1-372)
binding: binds
